Data source: PubChem BioAssay AID720505 (Drosophila RNAi Screening Center, 2013)
Assay: 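Knock-downs that reduce calcium influx once internal stores are emptied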 (primary screen). System: Drosophila S2R+ cells. Reagents: long dsRNA against Drosophila genes. Conditions: thapsigargin (2 µM) in calcium-free buffer to empty internal stores, then 2 mM calcium added back. Read-out: 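Fluo-4 signal in 384-well plates read on a FLIPR after thapsigargin (2 µM, calcium-free) store depletion and 2 mM calcium add-back; unnormalised mean endpoint per well; screen run twice, selected wells retested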. Scale: calcium signal: higher = more calcium entry after store depletion. Call rule: 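About 1500 genes called as lowering calcium entry, by varying amounts, judged against per-plate control wells with STIM1 as positive and Rho1 as negative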. Meaning of the calls: active = called as lowering calcium entry; inactive = not called.
The screen tested about 20,000 reagents; this is an unselected part of those that have a named target and a result. In the full data, about 2,100 (10%) are marked active. 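Raw plate signals without normalisation; calls rest on control-based scores that were not deposited; replicate 2 separates called from uncalled poorly.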 The record does not give: the amount of reagent, the time to read-out.

CG12106 [DRSC17805]
- calcium signal, replicate 1: 60.4
- calcium signal, replicate 2: 119
- activity call: active

CG13594 [DRSC04229]
- calcium signal, replicate 1: 151
- calcium signal, replicate 2: 222
- activity call: inactive

CG13594 [DRSC23254]
- calcium signal, replicate 1: 109
- calcium signal, replicate 2: 169
- activity call: inactive

CG32333 [DRSC08627]
- calcium signal, replicate 1: 115
- calcium signal, replicate 2: 123
- activity call: inactive

CG32333 [DRSC08629]
- calcium signal, replicate 1: 66.2
- calcium signal, replicate 2: 98.4
- activity call: inactive

Mitofilin [DRSC16742]
- calcium signal, replicate 1: 129
- calcium signal, replicate 2: 181
- activity call: inactive

CG8100 [DRSC10961]
- calcium signal, replicate 1: 82.2
- calcium signal, replicate 2: 117
- activity call: inactive

CG13667 [DRSC10028]
- calcium signal, replicate 1: 88.8
- calcium signal, replicate 2: 122
- activity call: inactive

hog [DRSC19057]
- calcium signal, replicate 1: 81.5
- calcium signal, replicate 2: 111
- activity call: inactive

CG34310 [DRSC00943]
- calcium signal, replicate 1: 75.8
- calcium signal, replicate 2: 156
- activity call: inactive

CG33257 [DRSC09917]
- calcium signal, replicate 1: 92.2
- calcium signal, replicate 2: 150
- activity call: inactive

CG15831 (retired record) [DRSC20816]
- calcium signal, replicate 1: 205
- calcium signal, replicate 2: 83.9
- activity call: inactive

CG7745 [DRSC07037]
- calcium signal, replicate 1: 139
- calcium signal, replicate 2: 144
- activity call: inactive

CG7745 [DRSC23103]
- calcium signal, replicate 1: 142
- calcium signal, replicate 2: 167
- activity call: inactive

Femcoat [DRSC18061]
- calcium signal, replicate 1: 142
- calcium signal, replicate 2: 112
- activity call: inactive

X11Lbeta [DRSC18156]
- calcium signal, replicate 1: 131
- calcium signal, replicate 2: 87.1
- activity call: inactive

X11Lbeta [DRSC18158]
- calcium signal, replicate 1: 132
- calcium signal, replicate 2: 88.8
- activity call: inactive

Sumo (Small ubiquitin like modifier) [DRSC03611]
- calcium signal, replicate 1: 116
- calcium signal, replicate 2: 207
- activity call: inactive

CG11000 [DRSC12158]
- calcium signal, replicate 1: 88.8
- calcium signal, replicate 2: 182
- activity call: inactive

Obp56f (Odorant-binding protein 56f) [DRSC22270]
- calcium signal, replicate 1: 89.6
- calcium signal, replicate 2: 148
- activity call: inactive

Gli (Gliotactin) [DRSC03332]
- calcium signal, replicate 1: 102
- calcium signal, replicate 2: 156
- activity call: inactive

Gle1 (Gle1 RNA export mediator) [DRSC06485]
- calcium signal, replicate 1: 157
- calcium signal, replicate 2: 144
- activity call: inactive

CG32643 [DRSC18962]
- activity call: active

CG2291 [DRSC06836]
- calcium signal, replicate 1: 143
- calcium signal, replicate 2: 155
- activity call: inactive

Herp (Homocysteine-induced endoplasmic reticulum protein) [DRSC02394]
- calcium signal, replicate 1: 137
- calcium signal, replicate 2: 222
- activity call: inactive

CG11029 [DRSC02119]
- calcium signal, replicate 1: 119
- calcium signal, replicate 2: 138
- activity call: inactive

CG34057 [DRSC08375]
- calcium signal, replicate 1: 103
- calcium signal, replicate 2: 68.7
- activity call: inactive

CG15695 [DRSC15117]
- calcium signal, replicate 1: 223
- calcium signal, replicate 2: 140
- activity call: inactive
